PMC3494447 (British Journal of Cancer, 2012)
Read-outs that look alike come from different tables or passages of the source.

Assays:
CYP1A2 = details: competitive inhibition, in vitro; ref unpublished data; cited from earlier work
[1] = format: in vivo, human
[2] = tested on: cytochrome P450 (CYP) 2C8 enzyme; details: in vitro, ref unpublished data, cited from earlier work

SMILES: CNC(=O)c1ccccc1Sc1ccc2c(/C=C/c3ccccn3)n[nH]c2c1 [Axitinib, axitinib]
- inhibitor constant, CYP1A2 (CYP1A2): 0.27 μg ml^–1
- CL/F, Mean (%CV) ([1]; axitinib 5 mg b.i.d. + gemcitabine/cisplatin, cycle 1 day 1): 46.7 (104) l h^−1
- CL/F, Mean (%CV) ([1]; axitinib + paclitaxel/carboplatin, cycle 1 day 1, dose-normalised to 5 mg b.i.d.): 37 (114) l h^−1
- CL/F, Mean (%CV) ([1]; axitinib alone 5 mg b.i.d., steady state, gemcitabine/cisplatin cohort): 50.1 (113) l h^−1
- CL/F, Mean (%CV) ([1]; axitinib alone, steady state, cohorts 1–3 pooled, dose-normalised to 5 mg b.i.d.): 39 (87) l h^−1
- Mode of CYP2C8 inhibition [2]: noncompetitively inhibits
- inhibitor constant, CYP2C8 ([2]; non-competitive inhibition): 0.19 μg ml^–1
